Our source for the binding values is publication PMC10818623, “Assessing Trans-Inhibition of OATP1B1 and OATP1B3 by Calcineurin and/or PPIase Inhibitors and Global Identification of OATP1B1/3-Associated Proteins” (Pharmaceutics, 2023).

The chains are these.
T1: FLAG-tagged OATP1B3 (organic anion transporting polypeptide 1B3) (UniProt Q9NPD5)
T1 sequence: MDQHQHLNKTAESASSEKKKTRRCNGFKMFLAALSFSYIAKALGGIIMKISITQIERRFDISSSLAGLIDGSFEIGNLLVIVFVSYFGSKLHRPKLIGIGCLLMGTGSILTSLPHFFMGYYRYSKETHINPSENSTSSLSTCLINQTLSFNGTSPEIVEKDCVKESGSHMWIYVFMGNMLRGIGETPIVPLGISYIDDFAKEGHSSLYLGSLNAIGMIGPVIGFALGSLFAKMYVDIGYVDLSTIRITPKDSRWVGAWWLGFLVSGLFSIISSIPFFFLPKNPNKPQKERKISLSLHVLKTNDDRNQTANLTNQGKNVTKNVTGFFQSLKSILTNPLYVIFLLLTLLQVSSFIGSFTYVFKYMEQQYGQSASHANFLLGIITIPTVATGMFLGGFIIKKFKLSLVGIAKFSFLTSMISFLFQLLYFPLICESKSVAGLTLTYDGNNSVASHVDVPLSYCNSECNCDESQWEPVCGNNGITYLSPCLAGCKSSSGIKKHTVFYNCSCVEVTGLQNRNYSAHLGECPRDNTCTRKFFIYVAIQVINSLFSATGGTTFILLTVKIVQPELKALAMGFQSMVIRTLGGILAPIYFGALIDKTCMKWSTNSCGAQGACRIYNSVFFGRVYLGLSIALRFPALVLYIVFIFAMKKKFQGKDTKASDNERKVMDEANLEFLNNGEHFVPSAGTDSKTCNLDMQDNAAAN

T2: FLAG-tagged OATP1B1 (organic anion transporting polypeptide 1B1) (UniProt Q9Y6L6)
T2 sequence: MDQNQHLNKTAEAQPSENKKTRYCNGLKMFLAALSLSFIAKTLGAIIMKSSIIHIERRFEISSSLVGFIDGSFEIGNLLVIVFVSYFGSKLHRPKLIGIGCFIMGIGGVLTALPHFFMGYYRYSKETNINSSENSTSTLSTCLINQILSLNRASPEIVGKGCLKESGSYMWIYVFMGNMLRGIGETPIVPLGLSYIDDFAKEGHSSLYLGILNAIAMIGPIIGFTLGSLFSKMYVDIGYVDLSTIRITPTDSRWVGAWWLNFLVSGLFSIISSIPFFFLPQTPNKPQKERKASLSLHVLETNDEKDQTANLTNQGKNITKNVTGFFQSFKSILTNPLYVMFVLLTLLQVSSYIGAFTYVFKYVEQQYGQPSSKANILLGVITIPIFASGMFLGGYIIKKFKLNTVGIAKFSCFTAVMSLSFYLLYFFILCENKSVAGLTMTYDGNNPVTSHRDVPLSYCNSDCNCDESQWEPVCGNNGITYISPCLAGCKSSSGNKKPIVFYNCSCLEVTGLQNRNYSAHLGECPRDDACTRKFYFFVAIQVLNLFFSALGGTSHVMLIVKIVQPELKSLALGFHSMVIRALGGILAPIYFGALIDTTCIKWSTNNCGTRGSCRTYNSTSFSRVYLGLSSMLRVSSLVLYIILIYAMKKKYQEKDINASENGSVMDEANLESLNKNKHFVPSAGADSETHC

B1: 3-phosphoinositide-dependent protein kinase 1 (enzyme, UniProt O15530 1-556)
chain: MARTTSQLYDAVPIQSSVVLCSCPSPSMVRTQTESSTPPGIPGGSRQGPAMDGTAAEPRPGAGSLQHAQPPPQPRKKRPEDFKFGKILGEGSFSTVVLARELATSREYAIKILEKRHIIKENKVPYVTRERDVMSRLDHPFFVKLYFTFQDDEKLYFGLSYAKNGELLKYIRKIGSFDETCTRFYTAEIVSALEYLHGKGIIHRDLKPENILLNEDMHIQITDFGTAKVLSPESKQARANSFVGTAQYVSPELLTEKSACKSSDLWALGCIIYQLVAGLPPFRAGNEYLIFQKIIKLEYDFPEKFFPKARDLVEKLLVLDATKRLGCEEMEGYGPLKAHPFFESVTWENLHQQTPPKLTAYLPAMSEDDEDCYGNYDNLLSQFGCMQVSSSSSSHSLSASDTGLPQRSGSNIEQYIHDLDSNSFELDLQFSEDEKRLLLEKQAGGNPWHQFVENNLILKMGPVDKRKGLFARRRQLLLTEGPHLYYVDPVNKVLKGEIPWSQELRPEAKNFKTFFVHTPNRTYYLMDPSGNAHKWCRKIQEVWRQRYQSHPDAAVQ
B2: Serine/threonine-protein kinase 17A (enzyme, UniProt Q9UEE5 1-414)
chain: MIPLEKPGSGGSSPGATSGSGRAGRGLSGPCRPPPPPQARGLLTEIRAVVRTEPFQDGYSLCPGRELGRGKFAVVRKCIKKDSGKEFAAKFMRKRRKGQDCRMEIIHEIAVLELAQDNPWVINLHEVYETASEMILVLEYAAGGEIFDQCVADREEAFKEKDVQRLMRQILEGVHFLHTRDVVHLDLKPQNILLTSESPLGDIKIVDFGLSRILKNSEELREIMGTPEYVAPEILSYDPISMATDMWSIGVLTYVMLTGISPFLGNDKQETFLNISQMNLSYSEEEFDVLSESAVDFIRTLLVKKPEDRATAEECLKHPWLTQSSIQEPSFRMEKALEEANALQEGHSVPEINSDTDKSETKESIVTEELIVVTSYTLGQCRQSEKEKMEQKAISKRFKFEEPLLQEIPGEFIY
B3: Ubiquitin conjugation factor E4 A (enzyme, UniProt Q14139 1-1066)
chain: MTDQENNNNISSNPFAALFGSLADAKQFAAIQKEQLKQQSDELPASPDDSDNSVSESLDEFDYSVAEISRSFRSQQEICEQLNINHMIQRIFLITLDNSDPSLKSGNGIPSRCVYLEEMAVELEDQDWLDMSNVEQALFARLLLQDPGNHLINMTSSTTLNLSADRDAGERHIFCYLYSCFQRAKEEITKVPENLLPFAVQCRNLTVSNTRTVLLTPEIYVDQNIHEQLVDLMLEAIQGAHFEDVTEFLEEVIEALILDEEVRTFPEVMIPVFDILLGRIKDLELCQILLYAYLDILLYFTRQKDMAKVFVEYIQPKDPTNGQMYQKTLLGVILSISCLLKTPGVVENHGYFLNPSRSSPQEIKVQEANIHQFMAQFHEKIYQMLKNLLQLSPETKHCILSWLGNCLHANAGRTKIWANQMPEIFFQMYASDAFFLNLGAALLKLCQPFCKPRSSRLLTFNPTYCALKELNDEERKIKNVHMRGLDKETCLIPAVQEPKFPQNYNLVTENLALTEYTLYLGFHRLHDQMVKINQNLHRLQVAWRDAQQSSSPAADNLREQFERLMTIYLSTKTAMTEPQMLQNCLNLQVSMAVLLVQLAIGNEGSQPIELTFPLPDGYSSLAYVPEFFADNLGDFLIFLRRFADDILETSADSLEHVLHFITIFTGSIERMKNPHLRAKLAEVLEAVMPHLDQTPNPLVSSVFHRKRVFCNFQYAPQLAEALIKVFVDIEFTGDPHQFEQKFNYRRPMYPILRYMWGTDTYRESIKDLADYASKNLEAMNPPLFLRFLNLLMNDAIFLLDEAIQYLSKIKIQQIEKDRGEWDSLTPEARREKEAGLQMFGQLARFHNIMSNETIGTLAFLTSEIKSLFVHPFLAERIISMLNYFLQHLVGPKMGALKVKDFSEFDFKPQQLVSDICTIYLNLGDEENFCATVPKDGRSYSPTLFAQTVRVLKKINKPGNMIMAFSNLAERIKSLADLQQQEEETYADACDEFLDPIMSTLMCDPVVLPSSRVTVDRSTIARHLLSDQTDPFNRSPLTMDQIRPNTELKEKIQRWLAERKQQKEQLE
B4: Serine/threonine-protein kinase TNNI3K (enzyme, UniProt Q59H18 1-835)
chain: MGNYKSRPTQTCTDEWKKKVSESYVITIERLEDDLQIKEKELTELRNIFGSDEAFSKVNLNYRTENGLSLLHLCCICGGKKSHIRTLMLKGLRPSRLTRNGFTALHLAVYKDNAELITSLLHSGADIQQVGYGGLTALHIATIAGHLEAADVLLQHGANVNIQDAVFFTPLHIAAYYGHEQVTRLLLKFGADVNVSGEVGDRPLHLASAKGFLNIAKLLMEEGSKADVNAQDNEDHVPLHFCSRFGHHDIVKYLLQSDLEVQPHVVNIYGDTPLHLACYNGKFEVAKEIIQISGTESLTKENIFSETAFHSACTYGKSIDLVKFLLDQNVININHQGRDGHTGLHSACYHGHIRLVQFLLDNGADMNLVACDPSRSSGEKDEQTCLMWAYEKGHDAIVTLLKHYKRPQDELPCNEYSQPGGDGSYVSVPSPLGKIKSMTKEKADILLLRAGLPSHFHLQLSEIEFHEIIGSGSFGKVYKGRCRNKIVAIKRYRANTYCSKSDVDMFCREVSILCQLNHPCVIQFVGACLNDPSQFAIVTQYISGGSLFSLLHEQKRILDLQSKLIIAVDVAKGMEYLHNLTQPIIHRDLNSHNILLYEDGHAVVADFGESRFLQSLDEDNMTKQPGNLRWMAPEVFTQCTRYTIKADVFSYALCLWEILTGEIPFAHLKPAAAAADMAYHHIRPPIGYSIPKPISSLLIRGWNACPEGRPEFSEVVMKLEECLCNIELMSPASSNSSGSLSPSSSSDCLVNRGGPGRSHVAALRSRFELEYALNARSYAALSQSAGQYSSQGLSLEEMKRSLQYTPIDKYGYVSDPMSSMHFHSCRNSSSFEDSS
B5: Cyclin-G-associated kinase (enzyme, UniProt O14976 1-1311)
chain: MSLLQSALDFLAGPGSLGGASGRDQSDFVGQTVELGELRLRVRRVLAEGGFAFVYEAQDVGSGREYALKRLLSNEEEKNRAIIQEVCFMKKLSGHPNIVQFCSAASIGKEESDTGQAEFLLLTELCKGQLVEFLKKMESRGPLSCDTVLKIFYQTCRAVQHMHRQKPPIIHRDLKVENLLLSNQGTIKLCDFGSATTISHYPDYSWSAQRRALVEEEITRNTTPMYRTPEIIDLYSNFPIGEKQDIWALGCILYLLCFRQHPFEDGAKLRIVNGKYSIPPHDTQYTVFHSLIRAMLQVNPEERLSIAEVVHQLQEIAAARNVNPKSPITELLEQNGGYGSATLSRGPPPPVGPAGSGYSGGLALAEYDQPYGGFLDILRGGTERLFTNLKDTSSKVIQSVANYAKGDLDISYITSRIAVMSFPAEGVESALKNNIEDVRLFLDSKHPGHYAVYNLSPRTYRPSRFHNRVSECGWAARRAPHLHTLYNICRNMHAWLRQDHKNVCVVHCMDGRAASAVAVCSFLCFCRLFSTAEAAVYMFSMKRCPPGIWPSHKRYIEYMCDMVAEEPITPHSKPILVRAVVMTPVPLFSKQRSGCRPFCEVYVGDERVASTSQEYDKMRDFKIEDGKAVIPLGVTVQGDVLIVIYHARSTLGGRLQAKMASMKMFQIQFHTGFVPRNATTVKFAKYDLDACDIQEKYPDLFQVNLEVEVEPRDRPSREAPPWENSSMRGLNPKILFSSREEQQDILSKFGKPELPRQPGSTAQYDAGAGSPEAEPTDSDSPPSSSADASRFLHTLDWQEEKEAETGAENASSKESESALMEDRDESEVSDEGGSPISSEGQEPRADPEPPGLAAGLVQQDLVFEVETPAVLPEPVPQEDGVDLLGLHSEVGAGPAVPPQACKAPSSNTDLLSCLLGPPEAASQGPPEDLLSEDPLLLASPAPPLSVQSTPRGGPPAAADPFGPLLPSSGNNSQPCSNPDLFGEFLNSDSVTVPPSFPSAHSAPPPSCSADFLHLGDLPGEPSKMTASSSNPDLLGGWAAWTETAASAVAPTPATEGPLFSPGGQPAPCGSQASWTKSQNPDPFADLGDLSSGLQGSPAGFPPGGFIPKTATTPKGSSSWQTSRPPAQGASWPPQAKPPPKACTQPRPNYASNFSVIGAREERGVRAPSFAQKPKVSENDFEDLLSNQGFSSRSDKKGPKTIAEMRKQDLAKDTDPLKLKLLDWIEGKERNIRALLSTLHTVLWDGESRWTPVGMADLVAPEQVKKHYRRAVLAVHPDKAAGQPYEQHAKMIFMELNDAWSEFENQGSRPLF

These are yes or no findings as the source states them, for the method shown. Binding seen in cells or lysates may run through a third protein. Here binding means that the protein was enriched with, or labelled near, the bait; the list need not be complete. For some of these results: A no says only that the protein was not detected with the bait. Sequences can lack the tags named with a protein.

The first assay deals with T1, FLAG-tagged OATP1B3 (organic anion transporting polypeptide 1B3). Put plainly: affinity purification with mass spectrometry; FLAG-IP (M2 resin, overnight, 4 °C) from whole cell lysates of HEK293-FLAG-OATP1B1, HEK293-FLAG-OATP1B3 and HEK293-Mock cells; lysis buffer 50 mM Tris-HCl pH 7.4, 150 mM NaCl, 1 mM EDTA, 1% Triton X-100; seven washes; elution in SDS sample buffer at 60 °C; LC-MS/MS; N = 1; no drug treatment.
As for B1, the binding result was “binds”.

B2: the binding entry is “no binding”.

As for B3, the binding result was “no binding”.

On to B4, for which the binding result is on record as “no binding”.

With B5, the binding result was “binds”.

Another assay has as its target T2, FLAG-tagged OATP1B1 (organic anion transporting polypeptide 1B1). Described as above.
Turning to B1, the binding result is reported as “binds”.

For the molecule B2, the binding entry is “binds”.

In the case of B3, the binding result is “binds”.

Consider B4, for which the binding result is given as “binds”.

B5: the binding entry was “binds”.
